In article PMC10992996:
Results are given in words; binding and its absence hold for the method and conditions named. Binding seen in cells or lysates may run through a third protein. Here binding means that the protein was enriched with, or labelled near, the bait; the list need not be complete.

By UniProt entry, the sequences of proteins in these tests, tags left out. Residues count along the entry.
UniProt Q5IJ48, residues 29-1285: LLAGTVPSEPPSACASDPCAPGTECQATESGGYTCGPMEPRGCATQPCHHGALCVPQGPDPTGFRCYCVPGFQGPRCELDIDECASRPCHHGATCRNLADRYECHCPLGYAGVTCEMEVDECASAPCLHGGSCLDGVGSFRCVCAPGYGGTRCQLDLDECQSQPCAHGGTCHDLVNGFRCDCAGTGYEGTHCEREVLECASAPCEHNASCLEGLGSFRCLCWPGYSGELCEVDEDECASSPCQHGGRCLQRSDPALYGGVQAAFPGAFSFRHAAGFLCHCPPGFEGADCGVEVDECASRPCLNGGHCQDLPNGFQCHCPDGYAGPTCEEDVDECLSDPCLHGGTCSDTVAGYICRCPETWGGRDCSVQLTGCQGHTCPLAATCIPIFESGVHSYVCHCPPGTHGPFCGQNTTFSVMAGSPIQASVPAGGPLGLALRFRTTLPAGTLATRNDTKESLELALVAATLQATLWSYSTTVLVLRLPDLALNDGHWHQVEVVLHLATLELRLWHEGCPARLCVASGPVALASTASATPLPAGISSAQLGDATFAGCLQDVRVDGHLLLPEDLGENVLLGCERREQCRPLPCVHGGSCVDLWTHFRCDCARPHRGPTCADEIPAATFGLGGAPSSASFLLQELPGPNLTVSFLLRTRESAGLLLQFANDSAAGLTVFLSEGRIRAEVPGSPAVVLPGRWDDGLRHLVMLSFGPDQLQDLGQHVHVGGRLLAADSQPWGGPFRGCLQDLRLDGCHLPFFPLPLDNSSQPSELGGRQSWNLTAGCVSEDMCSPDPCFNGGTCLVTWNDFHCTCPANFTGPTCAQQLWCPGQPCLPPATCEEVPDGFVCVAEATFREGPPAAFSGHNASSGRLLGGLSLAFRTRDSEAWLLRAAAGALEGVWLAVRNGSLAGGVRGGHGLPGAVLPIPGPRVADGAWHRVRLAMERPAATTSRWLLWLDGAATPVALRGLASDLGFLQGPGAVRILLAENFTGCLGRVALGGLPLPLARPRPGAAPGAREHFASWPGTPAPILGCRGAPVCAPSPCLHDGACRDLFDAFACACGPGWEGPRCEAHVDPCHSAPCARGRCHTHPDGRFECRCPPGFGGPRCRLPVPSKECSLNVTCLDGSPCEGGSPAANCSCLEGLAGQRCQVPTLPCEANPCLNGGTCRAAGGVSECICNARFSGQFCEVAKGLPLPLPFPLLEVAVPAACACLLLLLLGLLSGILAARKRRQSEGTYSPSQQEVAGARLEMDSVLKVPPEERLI
UniProt Q8N4L2: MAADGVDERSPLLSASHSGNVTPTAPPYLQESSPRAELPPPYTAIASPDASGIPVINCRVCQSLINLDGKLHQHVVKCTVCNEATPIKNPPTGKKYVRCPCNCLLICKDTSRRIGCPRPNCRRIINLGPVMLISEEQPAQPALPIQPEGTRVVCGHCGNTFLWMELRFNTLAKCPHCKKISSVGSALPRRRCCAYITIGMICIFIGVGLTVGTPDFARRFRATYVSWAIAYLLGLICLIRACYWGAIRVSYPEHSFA
UniProt Q04721, residues 26-2471: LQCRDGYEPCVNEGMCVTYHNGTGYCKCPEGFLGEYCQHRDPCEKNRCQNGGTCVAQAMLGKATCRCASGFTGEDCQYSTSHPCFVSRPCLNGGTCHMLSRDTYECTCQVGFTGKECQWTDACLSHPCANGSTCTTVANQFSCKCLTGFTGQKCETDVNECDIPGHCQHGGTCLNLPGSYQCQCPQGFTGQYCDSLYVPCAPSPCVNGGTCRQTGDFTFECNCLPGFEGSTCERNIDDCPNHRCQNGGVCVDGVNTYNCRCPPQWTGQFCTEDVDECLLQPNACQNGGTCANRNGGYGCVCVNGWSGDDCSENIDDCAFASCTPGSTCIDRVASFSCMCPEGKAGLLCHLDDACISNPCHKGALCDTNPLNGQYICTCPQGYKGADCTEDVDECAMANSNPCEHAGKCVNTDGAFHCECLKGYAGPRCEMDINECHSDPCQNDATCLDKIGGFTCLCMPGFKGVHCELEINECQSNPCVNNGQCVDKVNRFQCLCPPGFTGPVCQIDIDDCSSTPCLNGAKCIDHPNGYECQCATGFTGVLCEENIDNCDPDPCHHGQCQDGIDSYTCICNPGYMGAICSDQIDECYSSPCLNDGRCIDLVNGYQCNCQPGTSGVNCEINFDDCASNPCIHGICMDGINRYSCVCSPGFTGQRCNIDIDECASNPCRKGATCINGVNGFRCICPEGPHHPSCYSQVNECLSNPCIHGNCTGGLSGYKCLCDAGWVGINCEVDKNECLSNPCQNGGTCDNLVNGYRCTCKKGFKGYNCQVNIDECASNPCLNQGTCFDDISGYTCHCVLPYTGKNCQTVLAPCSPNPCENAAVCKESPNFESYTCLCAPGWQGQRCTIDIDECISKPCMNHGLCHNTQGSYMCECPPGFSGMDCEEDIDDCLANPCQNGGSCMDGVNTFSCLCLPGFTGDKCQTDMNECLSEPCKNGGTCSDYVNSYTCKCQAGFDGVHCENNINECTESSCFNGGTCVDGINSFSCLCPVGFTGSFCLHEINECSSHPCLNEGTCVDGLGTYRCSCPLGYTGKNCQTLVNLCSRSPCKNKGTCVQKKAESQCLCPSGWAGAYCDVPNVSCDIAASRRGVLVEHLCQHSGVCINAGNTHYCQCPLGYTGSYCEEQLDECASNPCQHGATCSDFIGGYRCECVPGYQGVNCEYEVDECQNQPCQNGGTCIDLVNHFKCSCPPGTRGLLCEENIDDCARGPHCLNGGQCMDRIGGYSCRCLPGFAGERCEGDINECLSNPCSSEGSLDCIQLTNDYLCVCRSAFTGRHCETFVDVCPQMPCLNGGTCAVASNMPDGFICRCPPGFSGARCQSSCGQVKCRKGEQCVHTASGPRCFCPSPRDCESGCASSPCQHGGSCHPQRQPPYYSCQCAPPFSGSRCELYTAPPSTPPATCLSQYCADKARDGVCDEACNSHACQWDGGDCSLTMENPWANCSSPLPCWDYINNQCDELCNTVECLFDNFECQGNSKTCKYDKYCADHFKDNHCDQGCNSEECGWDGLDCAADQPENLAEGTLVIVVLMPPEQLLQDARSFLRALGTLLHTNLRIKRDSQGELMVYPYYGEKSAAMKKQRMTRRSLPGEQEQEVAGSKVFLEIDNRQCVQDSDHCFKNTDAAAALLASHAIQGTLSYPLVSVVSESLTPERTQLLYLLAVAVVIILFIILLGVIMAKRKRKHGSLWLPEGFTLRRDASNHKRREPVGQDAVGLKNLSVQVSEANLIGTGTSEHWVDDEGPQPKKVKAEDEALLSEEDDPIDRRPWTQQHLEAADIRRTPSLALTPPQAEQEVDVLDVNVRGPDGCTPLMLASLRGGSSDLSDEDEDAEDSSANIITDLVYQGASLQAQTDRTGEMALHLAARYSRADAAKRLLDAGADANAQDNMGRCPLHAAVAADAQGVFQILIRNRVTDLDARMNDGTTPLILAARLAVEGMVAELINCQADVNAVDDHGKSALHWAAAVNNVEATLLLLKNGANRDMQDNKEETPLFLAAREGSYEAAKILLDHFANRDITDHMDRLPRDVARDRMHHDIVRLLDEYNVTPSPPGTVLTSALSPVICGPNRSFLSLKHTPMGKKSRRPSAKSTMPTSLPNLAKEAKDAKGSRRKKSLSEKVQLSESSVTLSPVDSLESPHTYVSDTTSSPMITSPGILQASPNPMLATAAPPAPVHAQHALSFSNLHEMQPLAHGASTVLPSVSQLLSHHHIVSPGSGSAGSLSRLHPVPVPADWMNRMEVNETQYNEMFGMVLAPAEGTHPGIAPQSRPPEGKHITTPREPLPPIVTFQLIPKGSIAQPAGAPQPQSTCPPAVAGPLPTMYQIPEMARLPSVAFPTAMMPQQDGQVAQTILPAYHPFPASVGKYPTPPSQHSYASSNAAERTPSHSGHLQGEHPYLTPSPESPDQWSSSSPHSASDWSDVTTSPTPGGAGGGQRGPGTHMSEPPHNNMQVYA
UniProt Q86T03: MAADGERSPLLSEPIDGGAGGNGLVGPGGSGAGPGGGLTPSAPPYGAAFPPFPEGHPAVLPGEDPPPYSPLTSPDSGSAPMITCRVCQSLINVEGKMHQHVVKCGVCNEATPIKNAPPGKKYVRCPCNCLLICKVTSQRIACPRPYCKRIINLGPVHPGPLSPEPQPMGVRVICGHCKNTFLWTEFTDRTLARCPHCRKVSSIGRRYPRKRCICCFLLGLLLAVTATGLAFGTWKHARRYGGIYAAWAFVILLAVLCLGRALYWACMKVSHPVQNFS

Tests used:
[1] = biological target: Human canonical CRB2 (Crumbs homolog 2) (human) (UniProt Q5IJ48); assay: affinity purification with mass spectrometry; CRB2-FLAG (GFP-FLAG as control) from HEK293T lysate on FLAG beads, washed with 0.01% SDS in TBS, incubated with lysis buffer without porcine retina lysate, FLAG peptide elution, LC-MS/MS, N = 6; interactors derive from HEK293T cells
[2] = biological target: Human canonical CRB2 (Crumbs homolog 2) (human) (UniProt Q5IJ48); assay: affinity purification with mass spectrometry; CRB2-FLAG (GFP-FLAG as control) held on FLAG beads, washed and purified with 0.01% SDS, incubated with 4 mg porcine neural retina lysate 90 min at 4°C, FLAG peptide elution, LC-MS/MS, N = 6; only the target purified

| Substance | binding [1] | binding [2] |
| --- | --- | --- |
| TMEM55A (PIP4P2) (from UniProt Q8N4L2 1-257) (enzyme) | binds | binds |
| NOTCH2 (from UniProt Q04721 26-2471) (receptor) | binds |  |
| TMEM55B (PIP4P1) (from UniProt Q86T03 1-277) (enzyme) | binds | binds |
